{
  "source": "patent EP0551434B1",
  "about": "(BOARD OF REGENTS THE UNIVERSITY OF TEXAS SYSTEM, priority 1990, dated 1992)",
  "test_system": "MCF7",
  "test": "Inhibition of MCF7 breast tumor cell growth in vitro (72 hour exposure, MTT tetrazolium dye assay)",
  "assay_type": "cell-based",
  "settings": "Homo sapiens",
  "procedure": "The MCF7 cell line is a human tumor cell line. This cell line was cultured in MEM( (Eagles) media in a 5% C0^2 atmosphere with 10% fetal calf serum that had been washed twice with dextran coated charcoal to reduce endogenous estrogen levels. The media was supplemented with 1 mM sodium pyruvate and 100 µm non-essential amino acids. The cell line was screened routinely for myoplasma contamination using the GenProbe kit (Fisher). Cells were trypsinized and plated at a density of 5,000 cells/well in 96 well microtiter plates and allowed to attach and recover for 24 hours.\nThe media was removed by aspiration and replaced with filter sterilized drug (concentration from 10-^4 M to […]) in media. The cells were incubated for 72 hours and then stained using the MTT tetrazolium dye assay of Mosmann^36 except that after the media was removed, the blue formazan product was solubilized in 50 µl/well DMSO.",
  "note": "Where two headings read alike, the source gives them in different places.",
  "data": [
    {"compound": "CC/C(=C(\\c1ccccc1)c1ccc(OCCN(C)C)cc1)c1ccccc1", "note": "[Compound I, Tamoxifen, reference compound]", "values": [
      {"measurement": "IC50", "setting": "MCF7, 72 h, read-out: IC50 Dose (µM)", "result": 1, "unit": "µM"},
      {"measurement": "IC50", "setting": "MCF7, read-out: IC50 Dose (μM)", "result": 1, "unit": "µM"}
    ]}
  ]
}
